Measured values from PubChem BioAssay AID2685 (National Center for Advancing Translational Sciences (NCATS), 2010).
The list shows a part of the results. Further columns of the screen follow, without active or inactive calls. Most of these compounds were active or inconclusive in the main read-out, so they are no random draw. Potencies come from curve fits of mixed quality, noted in brackets.

Test: qHTS Assay for Lipid Storage Modulators in Drosophila S3 Cells;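 on cell number change: cells counted by Cell Tracker Red CMTPX staining in the red channel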
Conditions: BODIPY lipid droplet fluorescence, 18-24 h; for cell number change: measured here: cell count max response, cells fed with added oleic acid
Summary of the method: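 Drosophila S3 cells got compounds at several concentrations plus oleic acid (400 uM solution). Laser-scanning cytometry with 488 nm excitation read lipid droplets at 500-530 nm and cells at 575-640 nm. Percent activity was relative to 20 uM Triacsin C.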

[1] = measured here: cell number channel AC50, cells fed with added oleic acid
[2] = measured here: lipid fluorescence (Fed channel) AC50, cells fed with added oleic acid

SMILES	AC50 [1]	cell number change	AC50 [2]
CCN(CC)S(=O)(=O)c1cc(NC(=O)C(C)N2CCc3ccccc32)ccc1C (configuration not stated)	3.26 µM [rising, single point]	–	–
CN(C)/C=C(/C(=O)c1ccc(Cl)c(Cl)c1)S(C)(=O)=O	–	-4.92%	–
CC1(C)Cc2cccc(OCC(=O)N3CCN(c4ccccc4F)CC3)c2O1	–	74.5%	–
COc1ccccc1C(=O)NCCC(=O)NCC(c1ccccc1)N(C)C (configuration not stated)	29.1 µM [rising, single point]	48.6%	29.1 µM [rising, single point]
Clc1ccccc1-c1nnc(-c2cccs2)o1	20.6 µM [falling, single point]	-34.9%	18.4 µM [falling, partial curve]
CCOC(=O)Cn1nnc2c(sc3nc4c(c(-c5ccccc5)c32)CCC4)c1=O	0.326 µM [rising, full curve]	35.1%	0.411 µM [rising, full curve]
Cc1ccccc1NC(=O)Cc1nc(COC(=O)c2cccnc2Cl)cs1	–	-15.7%	29.1 µM [falling, single point]
Nc1ccc(S(=O)(=O)c2ccccc2)nc1	–	23%	5.8 µM [rising, full curve, poor fit]
COc1cc(S(C)=O)ccc1-c1nc2ncccc2[nH]1 (configuration not stated)	–	2.83%	2.06 µM [rising, single point]
COc1ccc(-c2nnc(SCC(=O)Nc3cccc(Cl)c3)o2)cc1	18.4 µM [falling, single point]	-31.7%	–
N#CCCn1ccc(NC(=O)c2ccc(Cl)cc2)n1	2.06 µM [rising, full curve]	50.6%	–
COc1c2ccoc2c(OC)c2oc(=O)ccc12	–	-3.7%	0.0366 µM [rising, full curve, poor fit]
COc1ccc(Nc2ncnc3sccc23)cc1	0.231 µM [falling, full curve, poor fit]	-7.94%	0.58 µM [falling, single point]
CC(=O)Nc1ccc(S(=O)(=O)N2CCSC2)cc1	–	13%	6.51 µM [rising, single point]
COc1ccccc1C(=O)NCCC(=O)Nc1ccc(S(=O)(=O)Nc2ncccn2)cc1	29.1 µM [falling, single point]	-38.8%	0.461 µM [falling, partial curve, poor fit]
Cc1cccc(-n2c(-c3ccco3)nc3nc4ccccc4nc32)c1	–	7.17%	3.26 µM [rising, single point]
CCOC(=O)C(NC(=O)CC(C)C)(Nc1cc(C)on1)C(F)(F)F (configuration not stated)	–	-19.5%	23.1 µM [falling, partial curve]
COc1ccc(-c2nncnn2)cc1	–	-17.5%	29.1 µM [falling, single point]
CCOC(=O)NC(NC(=S)Nc1ccccc1OC)C(Cl)(Cl)Cl (configuration not stated)	29.1 µM [falling, single point]	-30.8%	0.0231 µM [falling, full curve, poor fit]
CCOc1cc2[nH]c(=S)n(CCCC(=O)NCc3ccco3)c(=O)c2cc1OCC	–	-18.1%	29.1 µM [falling, single point]

In the list so far, three contain a thiophene ring, fused or not:
SMILES	AC50 [1]	cell number change	AC50 [2]
Clc1ccccc1-c1nnc(-c2cccs2)o1	20.6 µM [falling, single point]	-34.9%	18.4 µM [falling, partial curve]
CCOC(=O)Cn1nnc2c(sc3nc4c(c(-c5ccccc5)c32)CCC4)c1=O	0.326 µM [rising, full curve]	35.1%	0.411 µM [rising, full curve]
COc1ccc(Nc2ncnc3sccc23)cc1	0.231 µM [falling, full curve, poor fit]	-7.94%	0.58 µM [falling, single point]

(listing goes on)

SMILES	AC50 [1]	cell number change	AC50 [2]
CC(C)(C)NC(=O)Cn1cnc2cc([N+](=O)[O-])ccc2c1=O	–	19.4%	–
C[C@@H]([C@H](O)c1ccccc1)N(C)C(=S)Nc1ccccc1	–	-29.1%	29.1 µM [falling, single point]
CCCCOc1ccc(-c2nnn(CC(=O)NCc3ccco3)n2)cc1	–	8.35%	3.66 µM [rising, single point]
COc1ccc(C2=[N+]([O-])C(C)(C)N(O)C2(C)C)cc1	–	-24.5%	0.146 µM [falling, full curve, poor fit]
COc1ccccc1CN1C(=O)c2ccccc2C1C(=O)NC1CCC(C)CC1 (configuration not stated)	–	-10.4%	0.731 µM [rising, single point]
COc1cccc(NC(=O)CN(C)C(=O)c2cc(C3CC3)nn2-c2ccccc2)c1	23.1 µM [rising, single point]	35.5%	20.6 µM [rising, partial curve, poor fit]
CC1(C)CNC(=O)c2sc(NC(=O)c3ccccc3)nc2C1	–	12.6%	13 µM [rising, partial curve]
Cc1onc(-c2ccccc2)c1NC(=O)N(Cc1ccccc1)C(C)C	1.3 µM [falling, full curve]	-54%	1.64 µM [falling, full curve]
NN/C(=C\[N+](=O)[O-])Nc1ccccc1	29.1 µM [rising, single point]	36.4%	6.51 µM [falling, single point]
COc1ccc(CS(=O)(=O)CC(C)(O)c2ccccc2)cc1 (configuration not stated)	0.731 µM [rising, single point]	-0.901%	0.58 µM [rising, single point]
COc1ccc(F)cc1S(=O)(=O)N1CCN(c2ccccn2)CC1	–	–	8.2 µM [rising, partial curve]
CCN1CC(CN(C)Cc2nc(-c3ccco3)oc2C)CC1=O (configuration not stated)	–	9.84%	0.92 µM [rising, full curve, poor fit]
Cc1nc(-c2ccccc2)cn(O)c1=O	1.84 µM [falling, partial curve]	–	–
O=C(NCCc1ccccc1)C1CCCN1C(=O)Nc1cccc(Cl)c1 (configuration not stated)	–	-6.61%	–
CC(C)N(C(=O)Cn1c(Cl)nc2ccccc21)C(C)C	2.59 µM [falling, full curve]	-67.5%	13 µM [falling, partial curve, poor fit]
CCOC(=O)c1ccccc1NC(=O)COC(=O)CCC1CCCC1	–	-8.12%	8.2 µM [rising, partial curve, poor fit]
COc1cccc(C=N[C@@H](CO)[C@@H](O)c2ccc([N+](=O)[O-])cc2)c1O	–	-15%	–
CCOc1c(C)cnc2c1c(=O)n(Cc1c(F)cccc1Cl)c(=O)n2C	–	26.9%	29.1 µM [rising, partial curve]
CCOc1ccc(NC(=O)CN(C)S(=O)(=O)c2cnc[nH]2)cc1	1.3 µM [rising, full curve, poor fit]	-5.97%	–
Cc1ccccc1OCCC(=O)Nc1ccc(S(=O)(=O)N(C)C2CCN(C)CC2)cc1	–	-21.4%	29.1 µM [falling, single point]

SMILES	AC50 [1]	cell number change	AC50 [2]
CC(Sc1nnc2c(n1)[nH]c1ccccc12)C(=O)NC1CCCCC1 (configuration not stated)	–	26.9%	6.51 µM [rising, partial curve]
Cn1c(=O)n(CCc2ccccc2)c2ccccc21	–	17%	–
Cc1nc2ccccc2c(C)c1C(=O)c1ccccc1	–	26.7%	0.00517 µM [falling, full curve, poor fit]
Cc1cc(C)nc(SCc2nnc(SCC(=O)NCc3ccco3)n2-c2ccccc2)n1	–	0.74%	7.31 µM [rising, partial curve]
CCNC(=O)c1c(C)nc2ccccn12	0.651 µM [falling, partial curve, poor fit]	-52.6%	–
CN1CCN(c2nc(-c3cccnc3)nc3ccccc23)CC1	–	-16.8%	6.51 µM [rising, single point]
COc1cc(/C=N/NC(=O)c2cc(O)cc(O)c2)ccc1OC(=O)c1ccccc1	29.1 µM [falling, single point]	-39.1%	–
O=C(COc1ccccc1[N+](=O)[O-])N/N=C/c1ccc(O)c([N+](=O)[O-])c1	0.00461 µM [falling, full curve, poor fit]	-10.6%	0.00461 µM [falling, full curve, poor fit]
O=C1/C(=C/c2ccco2)SC(=S)N1C1CCS(=O)(=O)C1 (configuration not stated)	6.51 µM [rising, single point]	–	6.51 µM [rising, partial curve, poor fit]
Cc1cccc(-c2nn(-c3ccccc3)cc2C(=O)NCC(c2cccs2)N2CCOCC2)c1 (configuration not stated)	2.31 µM [rising, full curve]	49.2%	–
CCOC(=O)[C@H]1[C@H]2COc3ccc(Cl)cc3[C@@H]2N2C(=O)c3cc(OC)ccc3NC(=O)[C@@]12C	10.3 µM [falling, partial curve]	-35.1%	6.51 µM [falling, single point]
Cn1c(=O)c(C(=O)NNC(=O)c2cccc(Cl)c2)c(O)c2ccccc21	18.4 µM [rising, partial curve, poor fit]	35.2%	–
Cc1nn2cc(-c3ccc(Cl)cc3)cnc2c1Cl	1.46 µM [rising, partial curve]	-6.13%	2.06 µM [rising, partial curve]
CC(C)(C)c1nc2ccccc2[nH]1	20.6 µM [falling, single point]	-61%	–
Cn1c(=O)cc(OCC(=O)Nc2ccccn2)c2ccccc21	6.51 µM [rising, single point]	–	1.84 µM [rising, partial curve]
CSc1nc2c(c(=O)[nH]c(=O)n2C)n1Cc1ccccc1Cl	–	-21%	–
O=C(NCCCn1ccnc1)c1c(F)cccc1F	–	15.1%	–
O/N=C/c1ccc(OCc2ccccc2)c(Cl)c1	32.6 µM [falling, single point]	-37.4%	32.6 µM [falling, single point]
C[C@]12CC[C@@H]3c4ccc(O)cc4CC[C@H]3[C@@H]1CC[C@@H]2OC(=O)CCC(=O)O	–	22.7%	29.1 µM [falling, single point]
